Experimental data taken from article PMC7648758 (Nature Communications, 2020).

Test: general procedure: Fmoc solid-phase peptide synthesis; trityl chloride resin; HATU/HOAt/DIPEA
Settings: whole synthesis

Substance	crude purity (method not given) [%]	final purity (method not given) [%]
[sc,sc(Boc-KS(tBu)R(Pbf)W(Boc)- D(OtBu)E)]-OH	>90	
[sc,sc(KSRWDE)]-K-C-OH		>90
